In article PMC4446434, “A prophage-encoded actin-like protein required for efficient viral DNA replication in bacteria” (Nucleic Acids Research, 2015):
The exact form of at least one protein or probe is not confirmed. For some of these results: Negatives hold for the conditions tested. For some of these results: Tags and fusion partners may be left off the protein sequences shown.

What was measured:
AlpA (Cg1891) = test system: T1, AlpA (Cg1891); assay: EMSA; conditions: EMSA: 20 mM Tris/HCl pH 7.5, 50 mM KCl, 10 mM MgCl2, 5% glycerol, 0.5 mM EDTA, 0.005% Triton X-100, 100 ng DNA, 20 min, temperature not stated, native 10% PAGE, recombinant protein, protein details: N-terminal His10 (pET-TEV), probe letters rebuilt from the primers and the genome
T1 sequence (looked up, limits assumed): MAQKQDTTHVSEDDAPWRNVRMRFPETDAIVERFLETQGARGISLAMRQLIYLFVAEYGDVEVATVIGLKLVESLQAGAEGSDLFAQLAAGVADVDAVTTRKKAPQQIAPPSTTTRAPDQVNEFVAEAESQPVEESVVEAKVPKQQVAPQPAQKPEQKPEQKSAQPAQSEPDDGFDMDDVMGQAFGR

[1] = test system: AlpA (Cg1891) + AlpC (Cg1890); assay: EMSA supershift; conditions: ATP, AlpA 200-fold, AlpC 30-fold molar excess; EMSA: 20 mM Tris/HCl pH 7.5, 50 mM KCl, 10 mM MgCl2, 5% glycerol, 0.5 mM EDTA, 0.005% Triton X-100; 100 ng DNA, 20 min, temperature not stated; native 10% PAGE; recombinant protein; protein details: N-terminal His10 (pET-TEV),His10 (pET16b); probe letters rebuilt from the primers and the genome

“CACTTCCAAGGAAGATACACGCCCGAAGAAGCTCCGTTAATGGACGCTCTTCTATTAAGCCTTTTCTGATGGATACAAGCAGAGAATCAGTCATGCTAAATATCATAATCCATCAAACATTTGATCGGTGTCAATCAATGCGTTCTGGACTGAGGTGACCACCATGCAAGACGAGGTGGACCTAGTGATCACCAACCCGCCGTTTTCTCTGTTCCGTGAGTTCCTGAGTTGGCTATTACACGGTGACGTGTTGTTTTCTATCATCGGTAACGCGAACGTAATCACATATCTAGGTGCCTGAATCTAGATTAAAACTATAAACATTATTTAAAACCATTGCCTTATTGGAGCATGCTGCAAGCTTTTCGCGGTGGGCTTGCAACATCTTACATCAGAATGAATGATGTTAAACACCTAATAAGTTCAAGTAGTTAAAAGGAAATATCAACAATGTTACGAAAAGCATCTATCACGCTAATGATATCCGTTACGCTCTTAACAT (double strand) [cg2036 promoter control]”: no binding (AlpA (Cg1891); up to 500-fold molar excess AlpA, control named cg2036 in Methods/legend, cg2040 in Results).
“CTGGGGGCTAGAGCGCGCCAAAGAAAACACAGAGCAACCACCATTGCAGCAGTGCTGCAATGGTGGTTGTTTTTTTGGCACAGTCTCAGGCTGTGTTCGATGAGTGCAACATCAGCAGCAATCCCATTCGAGCAGTCAATGACCACGGGGACGAGCCCCGAGGTTTTCTCGCACATTATTCATAAAAAAAATTGCCAACCTGTGCTTAGATCAACCGCGAAAGAAAAGGAACACGGTAAAGCAACAGACTGGCAATCTTCCACACAGGTATTCGACGAGGGGTTTGGGGAACCAAGGGAACGAACATCTGCGAGATACTTAAGCTTGGGACGACACTCCCTCACTAGAGAACCTGTTACTAGTGTAACAAAGTTAAAACCAATACTCAATAAGATTCTCTAGTTTAAAATACCTAGTTCTTAGATGAAGTTTGAAACTTCATCTAAGAACTAGGTATTAATTACTTGCGTGCTTTCGCTGCAATCGAGCGTGCCGCAATCATAAGTCCTT (double strand) [alpC downstream region]”: no binding (AlpA (Cg1891); up to 500-fold molar excess AlpA).
“TGTCATGGTGGGGCTCCATTAGTTAACTATTAAATAGTTATTTAATCGACCGCTAGGGGTTTATTACCTGCCTGCTTAAGTGCACGTTAGGCGTGTTTTAAGGGCTTGTTAAAAGTGCCTTAAAAGGCAGATAACGGTCGATTATCGGTACATAGGGGATTGTGCTGTTAGTGGTTGTTTAAAAGCCCTTTAAGAAACGATTAATTGTTTTTTACGGGTTAATTATTAATTGACACATAAGTGCCTTTTAAAAGTACGTTAATTGCTTTTTAATTGTCTTTTAAAAGACACTTCTATGTTACTATTAAATTAGTCAATAACGTTAGTCATAAACAATGCAGTTATTGAAGAGAAACTTCCCGACACAATGTACGAAATGGGGGTCACACATGGCTCAAAAACAGGACACGACACATGTATCAGAGGACGATGCCCCGTGGCGTAATGTGCGTATGCGCTTCCCAGAAACAGACGCTATCGTTGAGCGGTTTTTGGAAACACA (double strand) [alpA upstream region (alpAC promoter, alpS)]”: binds [1]; binds (AlpA (Cg1891); 200- and 500-fold molar excess AlpA, smear).
